The record followed here is article PMC11012097.

By UniProt entry, the sequences of proteins in these tests, tags left out. Where a name states a change or a piece, a line headed by the entry shows the natural chain unless it says otherwise. Residues count along the entry.
UniProt O75306, residues 34-463: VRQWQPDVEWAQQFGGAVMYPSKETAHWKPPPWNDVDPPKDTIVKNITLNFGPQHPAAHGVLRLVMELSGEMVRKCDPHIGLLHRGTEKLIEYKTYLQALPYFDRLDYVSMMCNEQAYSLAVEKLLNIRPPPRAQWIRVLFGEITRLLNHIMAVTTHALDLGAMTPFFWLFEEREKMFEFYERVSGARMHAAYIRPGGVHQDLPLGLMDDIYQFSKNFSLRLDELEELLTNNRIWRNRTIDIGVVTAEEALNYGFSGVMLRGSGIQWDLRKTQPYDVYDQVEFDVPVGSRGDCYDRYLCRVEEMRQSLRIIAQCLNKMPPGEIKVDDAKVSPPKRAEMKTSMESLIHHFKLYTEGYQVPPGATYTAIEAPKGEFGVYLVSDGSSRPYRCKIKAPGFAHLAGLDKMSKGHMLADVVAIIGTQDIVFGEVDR
UniProt P31001: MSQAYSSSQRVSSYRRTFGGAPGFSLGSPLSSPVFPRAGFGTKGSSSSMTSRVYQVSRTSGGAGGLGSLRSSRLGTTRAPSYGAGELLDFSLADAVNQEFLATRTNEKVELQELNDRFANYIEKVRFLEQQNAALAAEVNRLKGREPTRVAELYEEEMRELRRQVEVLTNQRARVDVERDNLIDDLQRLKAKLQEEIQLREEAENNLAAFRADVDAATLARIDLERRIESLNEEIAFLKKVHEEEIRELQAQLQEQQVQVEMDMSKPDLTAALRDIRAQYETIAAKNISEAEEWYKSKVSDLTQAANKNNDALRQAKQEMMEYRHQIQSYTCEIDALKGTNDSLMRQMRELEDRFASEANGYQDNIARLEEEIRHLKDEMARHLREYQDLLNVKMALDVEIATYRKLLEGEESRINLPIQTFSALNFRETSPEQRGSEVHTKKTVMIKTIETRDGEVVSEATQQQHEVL
amino terminal domain (1–103 aa) of mouse desmin: residues 1-103 of P31001
UniProt Q91WD5, residues 34-463: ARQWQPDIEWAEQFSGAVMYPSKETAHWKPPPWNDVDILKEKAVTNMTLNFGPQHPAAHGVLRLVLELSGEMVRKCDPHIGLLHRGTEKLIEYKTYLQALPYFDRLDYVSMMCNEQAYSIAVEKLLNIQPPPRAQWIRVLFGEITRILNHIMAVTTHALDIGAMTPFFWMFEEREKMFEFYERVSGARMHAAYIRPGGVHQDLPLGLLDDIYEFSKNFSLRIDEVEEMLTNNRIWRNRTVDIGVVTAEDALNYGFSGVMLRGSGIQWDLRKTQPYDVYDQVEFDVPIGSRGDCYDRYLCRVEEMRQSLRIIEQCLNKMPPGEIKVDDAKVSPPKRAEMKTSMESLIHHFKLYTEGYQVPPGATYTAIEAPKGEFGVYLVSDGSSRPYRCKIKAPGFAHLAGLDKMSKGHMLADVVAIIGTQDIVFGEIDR

The target of experiment [1] is T1, GST–saposin D fragment 412–524 aa (human) (UniProt P07602).
T1 sequence: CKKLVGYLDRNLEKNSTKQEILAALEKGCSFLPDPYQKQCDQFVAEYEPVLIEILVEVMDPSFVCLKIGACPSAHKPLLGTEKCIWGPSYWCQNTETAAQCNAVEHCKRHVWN
Nature of the experiment: pull-down; GST, GST–NDUFS2 or GST–saposin D on glutathione Sepharose mixed with total extracts of transfected COS-7 cells, room temperature 2 h; Western blot with anti-desmin; only the target purified. For orientation: Immunoblotting shows a protein as a band on a membrane.

Experiment [2] deals with GST–NDUFS2 (UniProt O75306). The description is as above.
Experiment [3] deals with GST–desmin (UniProt P31001). Nature of the experiment: pull-down; GST or GST–desmin on glutathione Sepharose mixed with 1 mg total protein cardiac extract of Des−/− mice, room temperature 2 h; Western blot with anti-NDUFS2; only the target purified.
The target in experiment [4] is amino terminal domain (1–103 aa) of mouse desmin (mouse) (UniProt P31001). Kind of experiment: two-hybrid; Matchmaker GAL-4 system; desmin head as bait in pGBKT7 against a human heart muscle cDNA library; positives retested by co-transformation into AH109 on SD/–Ade/–His/–Leu/–Trp/X-α-Gal plates.

These are yes or no findings as the source states them, for the method shown. For some of these results: Binding seen in cells or lysates may run through a third protein. Some entries that bind do so weakly or less than the wild type. For some of these results: Sequences can lack the tags named with a protein.

For “DesminΔ1-48 (from UniProt P31001 49-469) (domain or fragment)”, the binding result in experiment [1] and in experiment [2] was “no binding” in each case.
As to “NDUFS2 of total protein cardiac extracts from desmin null (Des−/−) mice (from UniProt Q91WD5 34-463)”, the binding entry in experiment [3] is “binds”.

B1: clone-145, pro-saposin D fragment 1337–2839 bp (domain or fragment, UniProt P07602-1 412-524)
chain: CKKLVGYLDRNLEKNSTKQEILAALEKGCSFLPDPYQKQCDQFVAEYEPVLIEILVEVMDPSFVCLKIGACPSAHKPLLGTEKCIWGPSYWCQNTETAAQCNAVEHCKRHVWN
On to B1, for which, in experiment [4], the binding result is recorded as “binds”.
